In patent US8148603B2, “Transgenic ficus, method for producing same and use thereof” (The State of Israel, Ministry of Agriculture & Rural …, priority 2004, dated 2012):
At least one compound was matched to its structure with a doubt left.

System: Ficus carica leaf explants and shoots
Assay: Tolerance of non-inoculated leaf explants and of shoots to kanamycin
Type: in vivo
Settings: non-inoculated leaf explants, cv. Smyrna, 25 mg/l kanamycin
Method: In order to use kanamycin as a selection agent for transformed cells, non-inoculated leaf explants from in vitro fig cultures of both cultivars Brown Turkey and Smyrna were tested for their tolerance to kanamycin. Wounded leaves were placed on a regeneration medium supplemented with kanamycin at a concentration selected from 0, 10, 25, 50, 75 and 100 mg/l. The minimal concentration for inhibition of adventitious shoot induction for cv. Brown Turkey was 25 mg/l. However with cv. […] Therefore, the concentration of 50 mg/l kanamycin was initially chosen for selection in the subsequent transformation experiments.
Leaf explants of 3-4 weeks old in vitro propagated Ficus carica plants were wounded across the main vein and co-cultivated with the disarmed strain EHA105 harboring the plasmid pME504, comprising the genes GUS-int and npt II. Following co-cultivation with A. tumefaciens, explants were initially placed on regeneration medium supplemented with 50 mg/l kanamycin and 150 mg/l ticarcillin and cultured with their adaxial side up. The leaf explants were exposed for one week to low light intensity and then transferred to normal light. Under the selective conditions of 50 mg/l kanamycin, up to 30% of the explants of Brown Turkey and up to 50% of Smyrna formed green shoots after 4 weeks of culture. […]

NC[C@H]1O[C@H](O[C@H]2[C@H](O)[C@@H](O[C@H]3O[C@H](CO)[C@@H](O)[C@H](N)[C@H]3O)[C@H](N)C[C@@H]2N)[C@H](O)[C@@H](O)[C@@H]1O [kanamycin]
adventitious bud formation: a few single buds were formed
